According to PubChem BioAssay AID1487 (National Center for Advancing Translational Sciences (NCATS), 2009):
This is one part of the list. Further columns of the screen follow, without active or inactive calls. Compounds called inactive in the main read-out are mostly missing here. The note in brackets gives the kind of curve behind each potency; many fits are weak.

Experiment: qHTS Assay for Modulators of Lamin A Splicing
Details: HeLa LMNA splicing GFP/RFP minigene ratio, 48 h
Procedure, shortened: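 Read-out is the ratio of GFP to DsRed2 object intensity, acquired by 488 nm laser-scanning cytometry on HeLa lamin A-EGFP minigene reporter cells. Compound incubation 48 hrs at 37 °C in Opti-MEM with 2% FBS; DMSO 0.5% final.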

[1] = measured here: RFP viability control channel
[2] = measured here: GFP splicing reporter channel

Question: Which AC50 [1] does the source give for `CC1C(=O)C(C)C(c2ccc([N+](=O)[O-])cc2)NC1c1ccc([N+](=O)[O-])cc1` (configuration not stated) here?
Answer: The AC50 was 3.98 µM [falling, partial curve, poor fit].

Question: For `O=C(COc1ccccc1)Nc1cccc(-c2nnc(-c3ccccc3)o2)c1`, which AC50 [1] is on record?
Answer: The AC50 was 20 µM [rising, single point].

Question: With `CCOc1ccc(C2C(C(=O)Nc3cc(C)on3)c3ccccc3C(=O)N2CCN2CCOCC2)cc1` (configuration not stated) as the molecule, how does the AC50 [1] read?
Answer: The AC50 was 1.41 µM [rising, partial curve, poor fit].

Question: Which AC50 [2] does the source give for `CCOC(=O)c1csc(NC(=O)c2cc(OC)c(OC)c(OC)c2)n1` here?
Answer: The AC50 was 35.5 µM [falling, single point].

Question: And the AC50 [1]?
Answer: The AC50 was 3.55 µM [rising, single point].

Question: For `CC(=O)C1=C(c2ccccc2)NC(=S)NC1c1cc(Cl)c(OC(C)C)c(Cl)c1` (configuration not stated), which AC50 [2] is on record?
Answer: The AC50 was 35.5 µM [falling, single point].

Question: Which AC50 [2] does the source give for `CCOC(=O)c1c(NC(=O)CSc2nnnn2C)sc(C)c1-c1ccc(C)cc1` here?
Answer: Its AC50 is 35.5 µM [rising, single point].

Question: What about the AC50 [1] of the same molecule?
Answer: Its AC50 is 12.6 µM [rising, partial curve].

Question: For `Cn1c(=O)c2c(nc(NCCCO)n2Cc2cccc(Br)c2)n(C)c1=O`, which AC50 [2] is on record?
Answer: Its AC50 is 12.6 µM [rising, partial curve].

Question: What about the AC50 [1] of the same molecule?
Answer: Its AC50 is 15.8 µM [rising, single point].

Question: With `O=C(CN(C(=O)CSc1nc2ccccc2o1)c1ccccc1F)NC1CCCCC1` as the molecule, how does the AC50 [1] read?
Answer: The AC50 was 15.8 µM [rising, single point].

Question: With `Cc1ccc(NC(=O)c2ccc(CN3CC(=O)N4CCCCC4C3=O)cc2)c(C)c1` (configuration not stated) as the molecule, how does the AC50 [2] read?
Answer: The AC50 was 0.0224 µM [falling, full curve, poor fit].

Question: What does the source list for `NCCS(=O)O`?
Answer: AC50 [2]: 6.31 µM [falling, single point]; AC50 [1]: 6.31 µM [falling, single point]

Question: For `Cc1ccc(-n2ncc3c(N4CCN(c5ccccc5)CC4)ncnc32)c(C)c1`, which AC50 [2] is on record?
Answer: Its AC50 is 5.62 µM [rising, full curve, poor fit].

Question: What about the AC50 [1] of the same molecule?
Answer: Its AC50 is 3.55 µM [rising, full curve].

Question: Which AC50 [1] does the source give for `CC(CNc1ccc([N+](=O)[O-])c2cccnc12)Nc1c([N+](=O)[O-])cc(C(F)(F)F)cc1[N+](=O)[O-]` (configuration not stated) here?
Answer: Its AC50 is 14.1 µM [rising, partial curve, poor fit].

Question: Which AC50 [2] does the source give for `COc1cc2c3c(c1)C(C)=CC(C)(C)N3C(=O)C2=O` here?
Answer: The AC50 was 35.5 µM [falling, single point].

Question: And the AC50 [1]?
Answer: Its AC50 is 35.5 µM [falling, single point].

Question: For `Cc1cc(=O)[nH]c(SCCOc2ccc(OC(C)C)cc2)n1`, which AC50 [1] is on record?
Answer: Its AC50 is 14.1 µM [rising, partial curve].

Question: With `COc1ccc(-c2nc3ccccn3c2CN2CCN(c3ccccc3F)CC2)cc1` as the molecule, how does the AC50 [2] read?
Answer: The AC50 was 35.5 µM [falling, single point].

Question: And the AC50 [1]?
Answer: Its AC50 is 35.5 µM [falling, partial curve, poor fit].

Question: Which AC50 [2] does the source give for `COc1ccc(-c2nnc(SCC(=O)NC(C)c3ccccc3)o2)cc1OC` (configuration not stated) here?
Answer: Its AC50 is 35.5 µM [rising, single point].

Question: With `C=C1C(=O)C=C2CN(C(=O)c3ccccc3)[C@@](Cc3ccc(F)cc3)(C(=O)OC)[C@@H]12` as the molecule, how does the AC50 [2] read?
Answer: The AC50 was 1.78 µM [rising, partial curve].

Question: What about the AC50 [1] of the same molecule?
Answer: The AC50 was 3.55 µM [rising, partial curve].

Question: Which AC50 [2] does the source give for `Cc1ccc(-c2nnn(CC(=O)N3CCN(c4nc5ccccc5s4)CC3)n2)cc1` here?
Answer: Its AC50 is 2.24 µM [rising, partial curve, poor fit].

Question: What about the AC50 [1] of the same molecule?
Answer: The AC50 was 2.24 µM [rising, partial curve, poor fit].

Question: With `S=C(NCc1ccccc1)N1CCN(c2cccc(Cl)c2)CC1` as the molecule, how does the AC50 [1] read?
Answer: Its AC50 is 35.5 µM [rising, single point].

Question: With `CC(C)c1ccc(C(=O)NC(=S)NCc2cccnc2)cc1` as the molecule, how does the AC50 [2] read?
Answer: Its AC50 is 11.2 µM [rising, partial curve].

Question: What about the AC50 [1] of the same molecule?
Answer: The AC50 was 15.8 µM [rising, partial curve].

Question: With `COc1ccc(N(Cc2ccccc2)C(=O)CSc2nnc(Cn3nnc4ccccc43)o2)cc1` as the molecule, how does the AC50 [1] read?
Answer: Its AC50 is 35.5 µM [rising, single point].

Question: For `CCN(CC)c1ccc(-c2c(C#N)c(N)nc(OC)c2C#N)cc1`, which AC50 [2] is on record?
Answer: The AC50 was 35.5 µM [falling, single point].

Question: With `COc1ccc(C(=O)Cn2nnc(-c3ccccc3NC(=O)C3CCCCC3)n2)cc1` as the molecule, how does the AC50 [1] read?
Answer: The AC50 was 10 µM [rising, single point].

Question: Which AC50 [2] does the source give for `C=CCNC(=S)NC(=O)c1oc2ccccc2c1C` here?
Answer: The AC50 was 31.6 µM [rising, single point].

Question: For `Cc1ccc(C(=O)c2cccc(N)c2)cc1C`, which AC50 [2] is on record?
Answer: Its AC50 is 35.5 µM [falling, single point].

Question: And the AC50 [1]?
Answer: The AC50 was 12.6 µM [falling, partial curve, poor fit].

Question: With `COC(=O)c1ccc(N2CN=C(c3ccc(C)cc3)NC2=S)cc1` as the molecule, how does the AC50 [2] read?
Answer: The AC50 was 2 µM [rising, full curve].

Question: What about the AC50 [1] of the same molecule?
Answer: The AC50 was 2.51 µM [rising, full curve, poor fit].

Question: For `Cc1ccc(C)c(N2CCN(CCCNC(=O)c3cnn(-c4ccc(F)cc4)c3C3CCN(C(=O)OC(C)(C)C)CC3)CC2)c1`, which AC50 [2] is on record?
Answer: Its AC50 is 14.1 µM [falling, partial curve].

Question: And the AC50 [1]?
Answer: The AC50 was 22.4 µM [falling, single point].

Question: Which results are given for `C/C(CC(C)(C)C1CCCCC1)=N\NC(N)=S`?
Answer: AC50 [2]: 11.2 µM [rising, single point]; AC50 [1]: 17.8 µM [rising, single point]

Question: What does the source list for `CCn1cc(C(=O)NCc2cccc(F)c2)c(=O)c2cc(F)c(N3CCN(C(=O)c4ccco4)CC3)cc21`?
Answer: AC50 [2]: 17.8 µM [rising, single point]; AC50 [1]: 20 µM [rising, single point]

Question: With `COc1ccc(-c2cnc(C)o2)cc1S(=O)(=O)Nc1ccc(OC(F)(F)F)cc1` as the molecule, how does the AC50 [2] read?
Answer: The AC50 was 0.891 µM [falling, full curve, poor fit].

Question: For `COc1ccc(NC(=O)C2CCCN(c3c4c(nc5ncnn35)CCC4)C2)cc1` (configuration not stated), which AC50 [2] is on record?
Answer: The AC50 was 11.2 µM [rising, partial curve].

Question: And the AC50 [1]?
Answer: Its AC50 is 12.6 µM [rising, partial curve].

Question: For `Cc1ccc(NC(=O)C(OC(=O)c2ccc(O)cc2)c2ccccc2)cc1Cl` (configuration not stated), which AC50 [1] is on record?
Answer: Its AC50 is 31.6 µM [rising, single point].

Question: With `COc1cc(OC)cc(C(=O)Nc2ccc(CN3CCCCC3)cc2)c1` as the molecule, how does the AC50 [2] read?
Answer: The AC50 was 0.00501 µM [falling, full curve].

Question: And the AC50 [1]?
Answer: The AC50 was 0.00447 µM [falling, full curve, poor fit].

Question: For `O=C(CCS(=O)(=O)c1ccccc1)N(Cc1cccnc1)c1nc2ccc(F)cc2s1`, which AC50 [2] is on record?
Answer: The AC50 was 4.47 µM [falling, full curve].

Question: What about the AC50 [1] of the same molecule?
Answer: Its AC50 is 31.6 µM [falling, partial curve, poor fit].

Question: With `CC(C)Cc1nn2c(=O)cc(COC(=O)c3ccc(NC(=O)CCc4ccccc4)cc3)nc2s1` as the molecule, how does the AC50 [1] read?
Answer: Its AC50 is 0.0158 µM [falling, full curve, poor fit].

Question: Which AC50 [2] does the source give for `O=S(=O)(/C=C/c1ccccc1)N1CCN(Cc2ccc3c(c2)OCO3)CC1` here?
Answer: Its AC50 is 0.0891 µM [falling, full curve, poor fit].

Question: For `Cc1ccc(NC(=O)C(C)Sc2nc(-c3ccccc3)c(C#N)c(=O)[nH]2)c(C)c1` (configuration not stated), which AC50 [2] is on record?
Answer: The AC50 was 0.158 µM [falling, full curve, poor fit].

Question: What about the AC50 [1] of the same molecule?
Answer: The AC50 was 0.0891 µM [falling, full curve, poor fit].

Question: With `CCOC(=O)c1ccc(NC(=O)c2ccccc2[N+](=O)[O-])cc1` as the molecule, how does the AC50 [2] read?
Answer: The AC50 was 6.31 µM [rising, partial curve, poor fit].

Question: Which AC50 [2] does the source give for `CC(=O)Nc1ccc(SCC(=O)c2cc(C)n(Cc3cccs3)c2C)cc1` here?
Answer: Its AC50 is 8.91 µM [rising, partial curve].

Question: And the AC50 [1]?
Answer: Its AC50 is 7.94 µM [rising, partial curve].

Question: For `Cc1noc(/C=C/N(C)C)c1S(=O)(=O)NC1CCCCC1`, which AC50 [1] is on record?
Answer: The AC50 was 14.1 µM [rising, single point].

Question: With `CC(C)(C)c1cnnn1-c1ccc(/C=N/Nc2ccc([N+](=O)[O-])cc2)cc1` as the molecule, how does the AC50 [2] read?
Answer: Its AC50 is 35.5 µM [rising, single point].

Question: What about the AC50 [1] of the same molecule?
Answer: The AC50 was 35.5 µM [rising, single point].

Question: For `COc1ccccc1OCCCC(=O)Nc1ccc([N+](=O)[O-])cc1Br`, which AC50 [2] is on record?
Answer: Its AC50 is 0.891 µM [falling, full curve, poor fit].

Question: For `COc1cccc(/C=N/n2c(C)nc3ccccc32)c1OC`, which AC50 [1] is on record?
Answer: Its AC50 is 31.6 µM [rising, single point].

Question: Which AC50 [2] does the source give for `O=C(COc1ccc2ccccc2c1)Nc1ccncc1` here?
Answer: Its AC50 is 20 µM [falling, partial curve].

Question: What about the AC50 [1] of the same molecule?
Answer: Its AC50 is 11.2 µM [falling, partial curve].

Question: With `C=CCNC(=S)Nc1ccc(F)cc1F` as the molecule, how does the AC50 [1] read?
Answer: The AC50 was 17.8 µM [rising, partial curve, poor fit].

Question: For `Cc1ccc(O)c(C2=Nc3ccccc3N=C(c3cccs3)C2)c1`, which AC50 [2] is on record?
Answer: Its AC50 is 12.6 µM [rising, single point].

Question: What about the AC50 [1] of the same molecule?
Answer: The AC50 was 22.4 µM [rising, single point].

Question: With `O=C(NCCc1ccccc1)c1ccc(CS(=O)(=O)Cc2ccccc2Cl)o1` as the molecule, how does the AC50 [2] read?
Answer: The AC50 was 7.08 µM [falling, full curve, poor fit].

Question: With `COC(=O)Cn1ncc(N2C3CC(CC(C)(C)C3)C2C)c(Cl)c1=O` (configuration not stated) as the molecule, how does the AC50 [2] read?
Answer: Its AC50 is 14.1 µM [rising, single point].

Question: For `O=C(COC(=O)c1cccc(NC(=O)c2ccco2)c1)c1ccc(Br)cc1`, which AC50 [1] is on record?
Answer: The AC50 was 35.5 µM [rising, single point].

Question: Which results are given for `CCOC(=O)c1sc(-c2ccccc2)cc1NC(=O)Nc1ccccc1`?
Answer: AC50 [2]: 31.6 µM [rising, single point]; AC50 [1]: 35.5 µM [rising, single point]

Question: For `CCCCC(=O)Nc1nn(CC(C)C)c2nc3ccccc3cc12`, which AC50 [2] is on record?
Answer: Its AC50 is 25.1 µM [rising, partial curve, poor fit].

Question: What about the AC50 [1] of the same molecule?
Answer: Its AC50 is 4.47 µM [rising, single point].

Question: Which AC50 [1] does the source give for `O=C(CSCc1cccc(Cl)c1)N1CCN(Cc2ccc3c(c2)OCO3)CC1` here?
Answer: The AC50 was 35.5 µM [rising, single point].
